Assay results published in the supplement of paper PMC10849652.
The other results are listed elsewhere or left out.

Protein sequences, listed by entry. Tags and fused reporters are not part of them. Lines headed by an entry give the natural chain unless they say otherwise; changes in a name come on top.
UniProt Q14789: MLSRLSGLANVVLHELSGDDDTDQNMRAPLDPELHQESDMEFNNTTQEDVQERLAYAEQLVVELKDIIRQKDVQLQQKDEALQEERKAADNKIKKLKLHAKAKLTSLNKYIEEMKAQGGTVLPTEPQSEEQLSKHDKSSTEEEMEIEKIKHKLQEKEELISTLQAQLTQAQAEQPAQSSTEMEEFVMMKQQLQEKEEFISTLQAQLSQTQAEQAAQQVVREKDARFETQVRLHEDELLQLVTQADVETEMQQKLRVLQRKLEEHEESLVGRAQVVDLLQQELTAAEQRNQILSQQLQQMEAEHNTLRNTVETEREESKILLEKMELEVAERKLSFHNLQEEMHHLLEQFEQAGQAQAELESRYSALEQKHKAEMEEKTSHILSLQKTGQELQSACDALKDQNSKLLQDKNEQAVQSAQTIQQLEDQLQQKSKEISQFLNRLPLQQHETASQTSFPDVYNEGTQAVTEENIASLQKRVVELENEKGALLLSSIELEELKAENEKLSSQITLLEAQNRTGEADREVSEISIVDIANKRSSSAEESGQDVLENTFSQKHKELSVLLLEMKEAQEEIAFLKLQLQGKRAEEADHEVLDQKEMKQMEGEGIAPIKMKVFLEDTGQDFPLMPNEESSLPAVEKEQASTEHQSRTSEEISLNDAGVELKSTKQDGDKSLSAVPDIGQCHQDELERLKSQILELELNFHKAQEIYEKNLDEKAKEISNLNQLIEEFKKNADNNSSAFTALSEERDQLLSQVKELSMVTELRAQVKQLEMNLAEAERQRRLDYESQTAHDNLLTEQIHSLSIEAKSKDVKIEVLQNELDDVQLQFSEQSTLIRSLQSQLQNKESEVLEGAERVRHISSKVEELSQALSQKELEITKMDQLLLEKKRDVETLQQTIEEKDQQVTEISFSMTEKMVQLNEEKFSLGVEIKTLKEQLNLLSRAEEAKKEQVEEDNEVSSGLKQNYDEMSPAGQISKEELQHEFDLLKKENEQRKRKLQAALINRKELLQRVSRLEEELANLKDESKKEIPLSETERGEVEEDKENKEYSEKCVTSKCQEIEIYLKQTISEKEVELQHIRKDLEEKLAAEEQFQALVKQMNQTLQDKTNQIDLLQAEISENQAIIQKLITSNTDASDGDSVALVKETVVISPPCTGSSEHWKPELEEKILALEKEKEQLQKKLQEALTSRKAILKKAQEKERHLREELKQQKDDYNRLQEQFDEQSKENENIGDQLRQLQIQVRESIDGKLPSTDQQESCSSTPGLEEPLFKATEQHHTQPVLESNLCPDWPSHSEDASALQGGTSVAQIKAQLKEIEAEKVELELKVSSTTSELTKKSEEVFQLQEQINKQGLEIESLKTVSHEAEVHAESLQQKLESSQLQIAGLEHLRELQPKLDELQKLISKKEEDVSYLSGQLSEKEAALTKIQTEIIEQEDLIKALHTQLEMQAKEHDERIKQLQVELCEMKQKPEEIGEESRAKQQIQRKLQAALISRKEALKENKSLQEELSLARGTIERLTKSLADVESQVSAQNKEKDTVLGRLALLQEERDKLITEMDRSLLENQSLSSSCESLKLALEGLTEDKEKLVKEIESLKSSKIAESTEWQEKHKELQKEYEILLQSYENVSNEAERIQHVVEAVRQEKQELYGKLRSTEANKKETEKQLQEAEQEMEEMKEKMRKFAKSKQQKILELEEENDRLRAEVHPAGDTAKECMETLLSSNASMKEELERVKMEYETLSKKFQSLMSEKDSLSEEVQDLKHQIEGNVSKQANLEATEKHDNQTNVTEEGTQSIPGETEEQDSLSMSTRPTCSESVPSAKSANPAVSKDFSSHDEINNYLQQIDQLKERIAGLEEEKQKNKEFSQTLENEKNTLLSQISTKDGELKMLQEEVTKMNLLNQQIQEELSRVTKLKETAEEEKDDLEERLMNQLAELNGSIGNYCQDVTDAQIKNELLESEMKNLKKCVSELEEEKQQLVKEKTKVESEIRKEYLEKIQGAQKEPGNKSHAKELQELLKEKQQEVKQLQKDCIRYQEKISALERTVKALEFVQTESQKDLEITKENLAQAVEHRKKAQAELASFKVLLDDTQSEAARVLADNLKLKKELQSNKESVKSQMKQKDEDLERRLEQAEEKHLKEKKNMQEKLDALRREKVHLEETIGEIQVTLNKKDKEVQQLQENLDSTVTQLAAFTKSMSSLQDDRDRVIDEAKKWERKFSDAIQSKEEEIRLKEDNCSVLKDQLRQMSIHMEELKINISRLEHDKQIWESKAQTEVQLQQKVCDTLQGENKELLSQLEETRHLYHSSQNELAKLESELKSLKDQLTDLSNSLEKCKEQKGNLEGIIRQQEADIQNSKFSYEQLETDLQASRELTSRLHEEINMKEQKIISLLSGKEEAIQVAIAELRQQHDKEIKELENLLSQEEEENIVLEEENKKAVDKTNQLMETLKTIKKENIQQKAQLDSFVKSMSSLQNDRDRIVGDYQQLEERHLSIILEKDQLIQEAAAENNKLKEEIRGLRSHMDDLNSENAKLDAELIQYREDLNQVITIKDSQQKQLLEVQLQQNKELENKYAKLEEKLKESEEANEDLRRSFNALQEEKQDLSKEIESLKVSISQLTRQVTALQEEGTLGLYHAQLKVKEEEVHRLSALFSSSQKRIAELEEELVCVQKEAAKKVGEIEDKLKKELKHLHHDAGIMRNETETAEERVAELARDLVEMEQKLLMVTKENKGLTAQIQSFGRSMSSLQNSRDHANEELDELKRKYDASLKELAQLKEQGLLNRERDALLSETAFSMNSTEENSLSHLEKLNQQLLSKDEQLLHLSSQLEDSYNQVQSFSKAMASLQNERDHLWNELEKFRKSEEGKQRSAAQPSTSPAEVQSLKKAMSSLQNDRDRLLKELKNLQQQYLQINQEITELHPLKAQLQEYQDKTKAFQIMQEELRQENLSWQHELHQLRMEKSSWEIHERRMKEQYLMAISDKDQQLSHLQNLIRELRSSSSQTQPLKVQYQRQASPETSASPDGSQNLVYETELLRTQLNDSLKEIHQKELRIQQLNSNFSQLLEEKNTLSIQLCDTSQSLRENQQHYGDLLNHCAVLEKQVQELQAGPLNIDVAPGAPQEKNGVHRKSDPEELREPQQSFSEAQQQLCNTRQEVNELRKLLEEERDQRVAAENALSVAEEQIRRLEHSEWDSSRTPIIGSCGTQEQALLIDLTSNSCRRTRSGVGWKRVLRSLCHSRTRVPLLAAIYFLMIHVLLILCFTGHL
UniProt Q49A26: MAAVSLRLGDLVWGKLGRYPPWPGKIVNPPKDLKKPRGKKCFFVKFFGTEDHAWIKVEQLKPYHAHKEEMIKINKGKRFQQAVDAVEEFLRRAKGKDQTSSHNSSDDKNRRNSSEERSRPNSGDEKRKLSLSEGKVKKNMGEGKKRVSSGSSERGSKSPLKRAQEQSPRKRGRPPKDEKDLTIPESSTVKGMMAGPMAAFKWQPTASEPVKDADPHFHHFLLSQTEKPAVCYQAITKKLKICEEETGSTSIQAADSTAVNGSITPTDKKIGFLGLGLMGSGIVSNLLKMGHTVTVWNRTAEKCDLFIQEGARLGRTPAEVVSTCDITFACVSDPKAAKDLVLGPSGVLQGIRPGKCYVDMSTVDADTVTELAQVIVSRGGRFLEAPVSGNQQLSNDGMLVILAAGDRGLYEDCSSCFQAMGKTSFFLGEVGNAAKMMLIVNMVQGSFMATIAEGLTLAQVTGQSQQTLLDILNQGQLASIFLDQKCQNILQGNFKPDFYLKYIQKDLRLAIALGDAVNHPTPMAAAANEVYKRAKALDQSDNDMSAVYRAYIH
UniProt Q14344, whole entry, looked up: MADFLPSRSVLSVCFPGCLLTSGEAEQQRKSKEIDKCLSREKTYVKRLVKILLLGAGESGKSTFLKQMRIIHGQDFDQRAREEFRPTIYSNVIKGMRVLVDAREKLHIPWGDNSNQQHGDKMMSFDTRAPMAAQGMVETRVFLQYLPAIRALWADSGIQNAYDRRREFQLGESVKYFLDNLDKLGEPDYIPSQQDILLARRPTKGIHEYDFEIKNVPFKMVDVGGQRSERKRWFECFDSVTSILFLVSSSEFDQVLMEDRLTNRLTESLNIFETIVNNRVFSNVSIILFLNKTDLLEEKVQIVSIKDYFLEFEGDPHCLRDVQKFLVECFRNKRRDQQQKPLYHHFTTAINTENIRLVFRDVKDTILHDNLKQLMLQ
UniProt P60983, whole entry, looked up: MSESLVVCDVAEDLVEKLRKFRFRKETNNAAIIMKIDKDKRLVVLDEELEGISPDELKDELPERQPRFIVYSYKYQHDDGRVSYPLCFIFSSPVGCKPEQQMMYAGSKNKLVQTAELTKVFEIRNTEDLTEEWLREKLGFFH
UniProt Q53EU6: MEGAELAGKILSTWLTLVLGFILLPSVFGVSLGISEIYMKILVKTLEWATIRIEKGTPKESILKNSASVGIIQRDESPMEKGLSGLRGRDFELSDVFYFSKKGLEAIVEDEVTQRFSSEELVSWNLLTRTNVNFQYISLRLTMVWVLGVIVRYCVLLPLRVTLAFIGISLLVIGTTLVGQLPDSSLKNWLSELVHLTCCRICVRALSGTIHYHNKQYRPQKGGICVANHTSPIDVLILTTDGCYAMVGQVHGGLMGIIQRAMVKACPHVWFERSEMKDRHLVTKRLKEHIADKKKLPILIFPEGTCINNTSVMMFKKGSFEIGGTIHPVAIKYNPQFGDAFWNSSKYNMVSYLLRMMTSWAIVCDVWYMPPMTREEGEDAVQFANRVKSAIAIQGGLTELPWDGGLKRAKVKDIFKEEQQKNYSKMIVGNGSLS
UniProt Q9Y2X7: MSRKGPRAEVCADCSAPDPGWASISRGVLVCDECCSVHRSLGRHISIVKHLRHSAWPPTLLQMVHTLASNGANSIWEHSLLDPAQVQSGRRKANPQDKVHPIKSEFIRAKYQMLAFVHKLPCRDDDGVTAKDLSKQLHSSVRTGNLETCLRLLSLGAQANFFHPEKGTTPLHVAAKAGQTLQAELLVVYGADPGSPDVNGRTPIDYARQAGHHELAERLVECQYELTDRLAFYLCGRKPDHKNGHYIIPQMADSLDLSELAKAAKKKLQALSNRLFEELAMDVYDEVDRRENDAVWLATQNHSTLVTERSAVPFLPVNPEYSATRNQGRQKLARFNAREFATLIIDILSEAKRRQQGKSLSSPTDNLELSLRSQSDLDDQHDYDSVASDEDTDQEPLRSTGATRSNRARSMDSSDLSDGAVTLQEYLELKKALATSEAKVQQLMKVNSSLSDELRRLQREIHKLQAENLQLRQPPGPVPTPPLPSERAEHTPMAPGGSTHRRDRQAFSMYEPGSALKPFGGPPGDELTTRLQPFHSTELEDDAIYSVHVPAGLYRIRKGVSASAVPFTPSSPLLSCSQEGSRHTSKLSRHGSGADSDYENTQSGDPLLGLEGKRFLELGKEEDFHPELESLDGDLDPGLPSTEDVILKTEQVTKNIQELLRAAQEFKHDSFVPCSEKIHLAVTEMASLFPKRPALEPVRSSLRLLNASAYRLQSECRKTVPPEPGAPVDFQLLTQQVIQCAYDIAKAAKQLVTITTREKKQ
UniProt Q9NWU2, whole entry, looked up: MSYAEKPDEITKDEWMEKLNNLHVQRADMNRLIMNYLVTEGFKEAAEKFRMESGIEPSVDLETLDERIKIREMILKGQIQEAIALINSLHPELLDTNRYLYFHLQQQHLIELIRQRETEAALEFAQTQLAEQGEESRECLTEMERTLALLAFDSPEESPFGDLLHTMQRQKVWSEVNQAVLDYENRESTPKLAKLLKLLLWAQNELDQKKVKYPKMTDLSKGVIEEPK
UniProt Q9P2T1: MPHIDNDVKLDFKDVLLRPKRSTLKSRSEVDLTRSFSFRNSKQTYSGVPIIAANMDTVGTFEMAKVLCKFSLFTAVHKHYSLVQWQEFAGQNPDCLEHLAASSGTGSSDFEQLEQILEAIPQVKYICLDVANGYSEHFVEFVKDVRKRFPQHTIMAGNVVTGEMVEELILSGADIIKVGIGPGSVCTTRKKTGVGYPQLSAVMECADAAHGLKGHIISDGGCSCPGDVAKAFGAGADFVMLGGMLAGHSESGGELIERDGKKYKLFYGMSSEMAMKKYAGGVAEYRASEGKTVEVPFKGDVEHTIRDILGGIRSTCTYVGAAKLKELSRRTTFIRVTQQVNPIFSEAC
UniProt O14908: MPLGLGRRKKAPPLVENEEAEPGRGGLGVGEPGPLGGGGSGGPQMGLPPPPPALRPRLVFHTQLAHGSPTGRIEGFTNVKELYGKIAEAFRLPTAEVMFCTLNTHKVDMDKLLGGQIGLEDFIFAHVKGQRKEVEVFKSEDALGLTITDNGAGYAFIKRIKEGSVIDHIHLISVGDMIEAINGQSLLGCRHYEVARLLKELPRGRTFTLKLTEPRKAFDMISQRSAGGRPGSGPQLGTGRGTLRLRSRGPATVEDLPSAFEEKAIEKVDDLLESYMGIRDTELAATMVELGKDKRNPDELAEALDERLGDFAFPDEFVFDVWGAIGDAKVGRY

Tests used:
Test in all cases: log2 fold change, soluble protein after heating vs DMSO (PISA); higher = thermal stabilisation; K562 lysate, 10 uM; active = over 0.2 and 3.5 SD of the protein, either way, in both replicates (recomputed)
erlotinib = compound: C#Cc1cccc(Nc2ncnc3cc(OCCOC)c(OCCOC)cc23)c1 [erlotinib]
Summary of the method: (§1)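 Log-two fold change in thermal stability relative to solvent controls is reported from duplicates. For each sample, crude K562 extract from dounce-homogenised pellets in PBS pH 7.4 with 1 mM MgCl2, at 1 mg/mL protein, was treated with 10 μM compound for 30 min. Aliquots heated for 3 min across 48°C-58°C were pooled, brought to 0.5% NP-40 at 4°C and cleared at 21,000xg for 90 min. The supernatant was quantified by TMTpro 16plex LC-MS/MS with channel sums equalised.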

[1] = compound: C/C(=N\NC(=O)C1=CC(=CC=C1)S(=O)(=O)N2CCOCC2)/C3=C(C=CC(=C3)Cl)O
Summary of the method: as §1

[2] = compound: C1=CC(=CC=C1C2=NC3=C(N2)C=C(C=C3)C(=O)N)OC4=CC=C(C=C4)Cl
Summary of the method: as §1

[3] = compound: C1=CC2=C(C=CC(=C2)/C=C\3/C(=O)NC(=NCC4=CC=CS4)S3)N=C1
Summary of the method: as §1

[4] = compound: C1=CC2=NC=CN=C2C=C1/C=C/3\C(=O)NC(=O)S3
Summary of the method: as §1

[5] = compound: C1=CC=C(C=C1)C2=NC(=C(N2)C3=CC=NC=C3)C4=CC(=C(C=C4)Cl)O
Summary of the method: as §1

[6] = compound: C1=CC=C2C(=C1)C3=NNC4=CC=CC(=C43)C2=O
Summary of the method: as §1

[7] = compound: C1CCN(C1)C(=O)NC2=CC=CC(=C2)NC3=NC=C(C(=N3)NCCC4=CN=CN4)Br
Summary of the method: as §1

[8] = compound: C1CN(CCC1(CC2=CC=C(C=C2)Cl)N)C3=NC=NC4=C3C=CN4
Summary of the method: as §1

IRAK-1-4 Inhibitor I = compound: C1COCCN1CCN2C3=CC=CC=C3N=C2NC(=O)C4=CC(=CC=C4)[N+](=O)[O-] [IRAK-1-4 Inhibitor I]
Summary of the method: as §1

ibrutinib = compound: C=CC(=O)N1CCC[C@@H](n2nc(-c3ccc(Oc4ccccc4)cc3)c3c(N)ncnc32)C1 [ibrutinib]
Summary of the method: as §1

[9] = compound: CC(=O)c1cnc2ccc(-c3cc(Cl)c(O)c(Cl)c3)nc2c1N[C@H]1CC[C@H](CN(C)C)CC1
Summary of the method: as §1

ralimetinib = compound: CC(C)(C)Cn1c(N)nc2ccc(-c3[nH]c(C(C)(C)C)nc3-c3ccc(F)cc3)nc21 [ralimetinib]
Summary of the method: as §1

[10] = compound: CC(C)(O)CC(=O)NCCn1ccc2ncnc(Nc3ccc(Oc4cccc(C(F)(F)F)c4)c(Cl)c3)c21
Summary of the method: as §1

[11] = compound: CC(C)C1=C2N=C(C=C(N2N=C1)NCC3=CC=CC=C3)NCCCCCCN
Summary of the method: as §1

[12] = compound: CC1=C(C(CC(=O)N1)C2=CC=C(C=C2)C(F)(F)F)C(=O)NC3=C(C=C4C(=C3)C=NN4)F
Summary of the method: as §1

[13] = compound: CC1=C(C2=C(C=C1)C(=O)C3=CC=CC=C3N2CCCN)C
Summary of the method: as §1

[14] = compound: CC1=C(C=C(C=C1)NC(=O)C2=CC(=CC=C2)C(C)(C)C#N)NC3=CC4=C(C=C3)N=CN(C4=O)C
Summary of the method: as §1

[15] = compound: CC1=C(C=C(C=C1)NC(=O)C2=CC(=CC=C2)N(C)C)NC(=O)C3=CC=C(C=C3)O
Summary of the method: as §1

[16] = compound: CC1=CC=C(C=C1)SC2=C3C=C(SC3=CN=C2)C(=O)N
Summary of the method: as §1

| Target | log2 fold change (erlotinib) | log2 fold change [1] | log2 fold change [2] | log2 fold change [3] | log2 fold change [4] | log2 fold change [5] | log2 fold change [6] | log2 fold change [7] | log2 fold change [8] | log2 fold change (IRAK-1-4 Inhibitor I) | log2 fold change (ibrutinib) | log2 fold change [9] | log2 fold change (ralimetinib) | log2 fold change [10] | log2 fold change [11] | log2 fold change [12] | log2 fold change [13] | log2 fold change [14] | log2 fold change [15] | log2 fold change [16] |
| --- | --- | --- | --- | --- | --- | --- | --- | --- | --- | --- | --- | --- | --- | --- | --- | --- | --- | --- | --- | --- |
| GOLGB1 (UniProt Q14789) | inactive: -0.023 | inactive: -0.019 | inactive: -0.088 | inactive: 0.025 | inactive: -0.031 | inactive: 0.026 | inactive: -0.088 | inactive: -0.033 | inactive: 0.011 | inactive: -0.005 | inactive: 0.006 | inactive: -0.003 | inactive: 0.011 | inactive: -0.012 | inactive: 0.002 | inactive: -0.005 | inactive: -0.025 | inactive: -0.007 | inactive: 0.013 | inactive: -0.002 |
| GOLGA2 (UniProt Q08379) | inactive: 0.002 | inactive: 0.022 | inactive: -0.012 | inactive: -0.002 | inactive: -0.007 | inactive: -0.011 | inactive: -0.161 | inactive: 0.035 | inactive: 0.046 | inactive: -0.004 | inactive: 0 | inactive: -0.021 | inactive: -0.028 | inactive: 0.016 | inactive: -0.002 | inactive: 0.019 | inactive: -0.027 | inactive: 0.024 | inactive: 0.03 | inactive: -0.02 |
| GPD2 (UniProt P43304) | inactive: -0.012 | inactive: -0.07 | inactive: 0.002 | inactive: -0.002 | inactive: 0.006 | inactive: -0.001 | inactive: -0.098 | inactive: 0.006 | inactive: -0.017 | inactive: 0.003 | inactive: -0.001 | inactive: -0.228 | inactive: 0.021 | inactive: -0.023 | inactive: -0.009 | inactive: 0.013 | inactive: -0.019 | inactive: 0.022 | inactive: -0.014 | inactive: -0.047 |
| GLYR1 (UniProt Q49A26) | inactive: 0.025 | inactive: 0.061 | inactive: -0.018 | inactive: 0.021 | inactive: 0.041 | inactive: 0.029 | inactive: -0.01 | inactive: 0.11 | inactive: 0.035 | inactive: 0.006 | inactive: 0.113 | inactive: 0.017 | inactive: 0.038 | inactive: -0.15 | inactive: 0.033 | inactive: 0.07 | active: -0.339 | inactive: 0.126 | inactive: 0.106 | inactive: 0.032 |
| GNA13 (UniProt Q14344) | inactive: -0.011 | inactive: 0.068 | inactive: -0.009 | inactive: -0.015 | inactive: 0.022 | inactive: -0.017 | inactive: -0.009 | inactive: -0.01 | inactive: 0.068 | inactive: 0.005 | inactive: -0.006 | inactive: -0.024 | inactive: 0.014 | inactive: -0.016 | inactive: -0.04 | inactive: 0.02 | inactive: -0.015 | inactive: 0.01 | inactive: -0.03 | inactive: -0.019 |
| GPR108 (UniProt Q9NPR9) | inactive: 0.035 | inactive: 0.022 | inactive: 0 | inactive: 0.066 | inactive: 0.015 | inactive: 0.056 | inactive: -0.028 | inactive: -0.015 | inactive: 0.03 | inactive: -0.026 | inactive: -0.017 | inactive: -0.063 | inactive: 0.001 | inactive: -0.024 | inactive: -0.08 | inactive: 0.039 | inactive: 0.049 | inactive: 0.027 | inactive: -0.062 | inactive: -0.004 |
| GMFB (UniProt P60983) | inactive: -0.023 | inactive: -0.109 | inactive: -0.007 | inactive: 0.008 | inactive: 0.029 | inactive: -0.025 | inactive: 0.102 | inactive: 0.024 | inactive: -0.021 | inactive: -0.061 | inactive: 0.013 | inactive: 0.029 | inactive: -0.014 | inactive: 0.03 | inactive: -0.008 | inactive: -0.001 | inactive: 0.011 | inactive: 0.003 | inactive: -0.044 | inactive: 0.022 |
| GMPR (UniProt P36959) | inactive: -0.001 | inactive: 0.028 | inactive: 0.024 | inactive: 0.051 | inactive: 0.005 | inactive: -0.015 | inactive: 0.014 | inactive: -0.001 | inactive: 0.003 | inactive: 0.032 | inactive: 0.047 | inactive: 0.001 | inactive: 0.004 | inactive: -0.062 | inactive: 0.008 | inactive: 0.016 | inactive: -0.007 | inactive: -0.024 | inactive: -0.008 | inactive: -0.018 |
| GPAT3 (UniProt Q53EU6) | inactive: 0.033 | inactive: -0.123 | inactive: -0.111 | inactive: -0.05 | inactive: 0.055 | inactive: -0.005 | inactive: -0.002 | inactive: 0.038 | inactive: 0.071 | inactive: -0.017 | inactive: 0.013 | inactive: 0.03 | inactive: 0.039 | inactive: -0.059 | inactive: 0.035 | inactive: 0.061 | inactive: 0.021 | inactive: -0.019 | inactive: 0.006 | inactive: 0.006 |
| GNE isoform 2 (UniProt Q9Y223) | inactive: 0.035 | inactive: -0.067 | inactive: -0.042 | inactive: -0.032 | inactive: 0.011 | inactive: 0.064 | inactive: -0.031 | inactive: -0.024 | inactive: 0.023 | inactive: -0.042 | inactive: -0.036 | inactive: 0.009 | inactive: 0.033 | inactive: -0.036 | inactive: -0.007 | inactive: -0.011 | inactive: -0.036 | inactive: -0.001 | inactive: 0.069 | inactive: 0.009 |
| GIT1 (UniProt Q9Y2X7) | inactive: -0.003 | inactive: 0.011 | inactive: -0.039 | inactive: 0.054 | inactive: -0.014 | inactive: -0.014 | inactive: -0.009 | inactive: 0 | inactive: -0.011 | inactive: 0.017 | inactive: 0.075 | inactive: -0.002 | inactive: -0.042 | inactive: 0.033 | inactive: -0.004 | inactive: -0.074 | inactive: -0.012 | inactive: 0.044 | inactive: -0.007 | inactive: 0.024 |
| GOLGA5 (UniProt Q8TBA6) | inactive: 0.008 | inactive: -0.004 | inactive: 0.046 | inactive: 0.013 | inactive: -0.005 | inactive: -0.031 | inactive: -0.104 | inactive: -0.022 | inactive: -0.027 | inactive: 0.015 | inactive: 0.002 | inactive: 0.03 | inactive: -0.034 | inactive: -0.006 | inactive: -0.049 | inactive: -0.012 | inactive: 0.002 | inactive: 0.003 | inactive: 0.032 | inactive: -0.018 |
| GGA3 (UniProt Q9NZ52) | inactive: 0.003 | inactive: -0.035 | inactive: -0.034 | inactive: -0.019 | inactive: 0.008 | inactive: -0.037 | inactive: 0.062 | inactive: 0.004 | inactive: -0.025 | inactive: -0.054 | inactive: 0.004 | inactive: 0.01 | inactive: 0.049 | inactive: 0.029 | inactive: -0.024 | inactive: 0.036 | inactive: 0.039 | inactive: -0.025 | inactive: 0.021 | inactive: -0.019 |
| GID8 (UniProt Q9NWU2) | inactive: 0.008 | inactive: 0.04 | inactive: 0.038 | inactive: 0.024 | inactive: -0.02 | inactive: 0 | inactive: 0.017 | inactive: 0.033 | inactive: 0.07 | inactive: -0.011 | inactive: 0.12 | inactive: -0.043 | inactive: -0.019 | inactive: -0.043 | inactive: 0.023 | inactive: -0.046 | inactive: -0.011 | inactive: 0.032 | inactive: 0.034 | inactive: -0.013 |
| GMPR2 isoform 2 (UniProt Q9P2T1) | inactive: 0.005 | inactive: 0.001 | inactive: 0.016 | inactive: 0.002 | inactive: 0.001 | inactive: -0.013 | inactive: -0.012 | inactive: -0.016 | inactive: 0.008 | inactive: -0.022 | inactive: 0.014 | inactive: -0.005 | inactive: -0.01 | inactive: -0.018 | inactive: -0.043 | inactive: -0.016 | inactive: 0.004 | inactive: 0.018 | inactive: -0.002 | inactive: -0.021 |
| GIPC1 (UniProt O14908) | inactive: 0.054 | inactive: 0.042 | inactive: 0.046 | inactive: 0.028 | inactive: 0.016 | inactive: -0.014 | inactive: 0.006 | inactive: -0.063 | inactive: -0.018 | inactive: -0.026 | inactive: 0.008 | inactive: -0.059 | inactive: 0.022 | inactive: -0.004 | inactive: -0.071 | inactive: -0.021 | inactive: 0.044 | inactive: -0.027 | inactive: 0.013 | inactive: -0.012 |

Full records as entered above. Values in the order: log2 fold change (erlotinib)	log2 fold change [1]	log2 fold change [2]	log2 fold change [3]	log2 fold change [4]	log2 fold change [5]	log2 fold change [6]	log2 fold change [7]	log2 fold change [8]	log2 fold change (IRAK-1-4 Inhibitor I)	log2 fold change (ibrutinib)	log2 fold change [9]	log2 fold change (ralimetinib)	log2 fold change [10]	log2 fold change [11]	log2 fold change [12]	log2 fold change [13]	log2 fold change [14]	log2 fold change [15]	log2 fold change [16]
GIPC1 (UniProt O14908) is entered as inactive: 0.054	inactive: 0.042	inactive: 0.046	inactive: 0.028	inactive: 0.016	inactive: -0.014	inactive: 0.006	inactive: -0.063	inactive: -0.018	inactive: -0.026	inactive: 0.008	inactive: -0.059	inactive: 0.022	inactive: -0.004	inactive: -0.071	inactive: -0.021	inactive: 0.044	inactive: -0.027	inactive: 0.013	inactive: -0.012
GLYR1 (UniProt Q49A26) is entered as inactive: 0.025	inactive: 0.061	inactive: -0.018	inactive: 0.021	inactive: 0.041	inactive: 0.029	inactive: -0.01	inactive: 0.11	inactive: 0.035	inactive: 0.006	inactive: 0.113	inactive: 0.017	inactive: 0.038	inactive: -0.15	inactive: 0.033	inactive: 0.07	active: -0.339	inactive: 0.126	inactive: 0.106	inactive: 0.032
